Experimental data from publication PMC7782687, “Insights into SusCD-mediated glycan import by a prominent gut symbiont” (Nature Communications, 2021).

Each substance was assayed against T1, Bt1762 (SusD) of the Bacteroides thetaiotaomicron levan utilisation locus, with C-terminal His6 tag (Bacteroides thetaiotaomicron) (UniProt Q8A6W4) (assay: co-purification (IMAC by the His6 tag on Bt1762, SDS-PAGE); OM fractions (LDAO extract) of WT (Bt1762-his) and mutant strains grown on MM fructose; Ni column, 0.2% LDAO in 20 mM Tris, 300 mM NaCl pH 8).
T1 sequence (chain, lipid anchor (lipoprotein)): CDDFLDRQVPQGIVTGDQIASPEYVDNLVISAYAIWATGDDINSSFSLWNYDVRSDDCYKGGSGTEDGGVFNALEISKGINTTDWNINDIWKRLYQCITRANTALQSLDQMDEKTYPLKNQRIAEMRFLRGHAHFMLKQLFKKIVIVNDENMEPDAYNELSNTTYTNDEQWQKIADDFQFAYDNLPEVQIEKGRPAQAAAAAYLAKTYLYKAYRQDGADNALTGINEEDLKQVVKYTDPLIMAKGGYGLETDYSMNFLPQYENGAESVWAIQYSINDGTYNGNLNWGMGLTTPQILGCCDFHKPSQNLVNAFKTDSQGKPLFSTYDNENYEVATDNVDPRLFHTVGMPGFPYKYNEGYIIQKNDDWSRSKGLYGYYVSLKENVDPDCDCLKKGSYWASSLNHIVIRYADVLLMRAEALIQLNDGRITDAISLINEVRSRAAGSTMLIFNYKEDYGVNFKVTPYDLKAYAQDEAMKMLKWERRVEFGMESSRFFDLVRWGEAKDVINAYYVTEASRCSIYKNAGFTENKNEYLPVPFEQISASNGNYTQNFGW

Substance	binding
Bt1763 (SusC) TonB box mut (TonB box mutated to all-Ala) (from UniProt Q8A6W3)	binds
Bt1763 (SusC) ΔNTE (N-terminal extension deleted) (from UniProt Q8A6W3)	binds
Bt1763 (SusC) ΔTonB box (from UniProt Q8A6W3)	binds
Bt1763 (SusC) Δhinge1 (loop L7 deleted) (from UniProt Q8A6W3)	binds
Bt1763 (SusC) Δhinge2 (loop L6 deleted) (from UniProt Q8A6W3)	binds

These are yes or no findings as the source states them, for the method shown. In cells and extracts the contact can be indirect. Binding calls can cover weak binding; strength is not graded here. Sequences can lack the tags named with a protein.
